# Assay results published in PubChem BioAssay AID445 (National Center for Advancing Translational Sciences (NCATS), 2006).
# This is one part of the list. The main result of the screen is listed elsewhere. These columns were measured beside it and carry no call. Compounds called inactive in the main read-out are mostly missing here. Words in brackets tell the shape of the fitted curve; partial curves, single points and poor fits give uncertain potencies.
# Assay: IkB Signaling
# Conditions: ABC-DLBCL IkBa-CBG/CBR dual luciferase ratio (green luciferase fused to IkBa over red control in OCI-Ly3 lymphoma cells), 4 h
# How it was run: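 In this assay, an IκBα–CBG68 fusion accumulates when IKK-driven degradation is blocked; native CBR normalizes for cell number. OCI-Ly3 cells were treated 4 h with compound and doxycycline, then green and red light read after Chroma-Glo addition.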
# [1] = measured here: control luc red channel unless noted
structure (smiles),measurement,setting,value
CCc1ccc2oc(-c3ccc(C)c(NC(=O)c4cc([N+](=O)[O-])ccc4N4CCOCC4)c3)nc2c1,AC50,[1],"3.16 µM [falling, full curve]"
Clc1ccc(CSc2ccc(-c3cccs3)nn2)cc1,AC50,[1],"2 µM [rising, full curve]"
COc1ccc(C(=O)NCCSc2c[nH]c3ccccc23)cc1OC,AC50,[1],"20 µM [falling, partial curve]"
CCC(CC)C(=O)N1c2ccccc2C(C)(c2ccccc2)CC1(C)C (stereo not drawn),AC50,[1],"12.6 µM [falling, partial curve]"
COC(=O)CN1C(=O)CSc2ccc(S(=O)(=O)Nc3ccc(F)c(Cl)c3)cc21,AC50,[1],"15.8 µM [falling, partial curve]"
CC(=O)N1CCc2c(sc3c2c(=O)n(Cc2ccccc2)c(=O)n3Cc2ccc(Cl)cc2)C1,AC50,[1],"39.8 µM [falling, single point]"
CSCCC(NS(=O)(=O)c1ccc2c(c1)oc(=O)n2C)C(=O)Nc1ccc(F)c(Cl)c1 (stereo not drawn),AC50,[1],"15.8 µM [falling, partial curve]"
COc1ccc(NC(=O)c2c(NCc3cccc(F)c3)sc3c2CCC3)c(OC)c1,AC50,[1],"39.8 µM [falling, single point]"
CCCCOc1ccc(C2=NC(c3cccs3)=Nc3ccc(OC)cc3N2)cc1,AC50,[1],"15.8 µM [falling, single point]"
COc1ccc(OC)c(CNC(=O)c2c(C)oc3ncn(CC(C)C)c(=O)c23)c1,AC50,[1],"12.6 µM [falling, partial curve, poor fit]"
Cc1nn(C)c(C)c1S(=O)(=O)N(CC(=O)NCCc1ccc(Cl)cc1)c1ccc(C(C)C)cc1,AC50,[1],"10 µM [falling, partial curve]"
COc1cccc2sc(N(Cc3cccnc3)C(=O)c3ccco3)nc12,AC50,[1],"20 µM [falling, partial curve]"
COc1ccc2cccc(N3CCN(CCNC(=O)c4ccc(F)cc4)CC3)c2c1,AC50,[1],"15.8 µM [falling, partial curve]"
CC1Cc2ccccc2N1C(=O)C1CCCN(S(=O)(=O)c2cccc3nsnc23)C1 (stereo not drawn),AC50,[1],"39.8 µM [falling, single point]"
Cc1ccccc1C(=O)Nc1ccc(S(=O)(=O)N2CCC(c3nc4ccccc4s3)CC2)cc1,AC50,[1],"20 µM [falling, single point]"
CCC(Oc1ccccc1)C(=O)Nc1cccc(OCc2cc(=O)n3cccc(C)c3n2)c1 (stereo not drawn),AC50,[1],"7.94 µM [falling, full curve]"
CCOC(=O)c1c(C)oc(NC(=O)COc2ccc(Cl)cc2C)c1C#N,AC50,[1],"25.1 µM [falling, partial curve]"
CCOC(=O)c1ccc2c(c1)nc(SC/C(O)=C(\C#N)c1nc3ccccc3[nH]1)n2CC,AC50,[1],"10 µM [falling, partial curve]"
COc1cccc(NC(=O)CSc2nc(C)c(Cc3ccccc3)c(=O)[nH]2)c1,AC50,[1],"20 µM [falling, partial curve]"
Cc1nc2c(c(=O)n1Cc1ccco1)c1nc3ccccc3nc1n2Cc1ccccc1,AC50,[1],"12.6 µM [falling, partial curve]"
Cc1cccc(-c2nc3c4c(-c5ccccc5)c(-c5ccccc5)oc4ncn3n2)c1,AC50,[1],"25.1 µM [falling, partial curve, poor fit]"
CC(C)CN(C(=O)COC(=O)c1ccc2c(c1)NC(=O)CS2)C1CCS(=O)(=O)C1 (stereo not drawn),AC50,[1],"25.1 µM [falling, partial curve]"
CC(=O)N1c2ccc(S(=O)(=O)N3CCC(C(=O)Nc4cccc(Cl)c4C)CC3)cc2CC1C (stereo not drawn),AC50,[1],"25.1 µM [falling, partial curve]"
CCOC(=O)C1CCN(S(=O)(=O)c2cccc(-c3cn4cccc(C)c4n3)c2)CC1,AC50,[1],"10 µM [falling, partial curve]"
CN(C)c1ccc(CNC(=O)Cc2ccc(NC(=O)N3CCCCc4ccccc43)cc2)cc1,AC50,[1],"12.6 µM [falling, partial curve]"
CCOC(=O)c1ccc(NC(=O)CCCc2nc(-c3cc(OC)c(OC)c(OC)c3)no2)cc1,AC50,[1],"31.6 µM [falling, single point]"
CCOc1ccc(S(=O)(=O)N(CC(=O)Nc2ccc(OC)cc2OC)c2ccccc2)cc1,AC50,[1],"31.6 µM [falling, partial curve, poor fit]"
Cc1nn(CCCC(=O)NCc2ccccc2Br)c(=O)c2c1sc1ccccc12,AC50,[1],"12.6 µM [falling, partial curve]"
CC(C)C(c1nnnn1Cc1ccccc1)N(Cc1ccco1)Cc1cccs1 (stereo not drawn),AC50,[1],"10 µM [falling, partial curve]"
O=C(NCc1ccccc1F)C1CCCN(C(=O)N2CCOc3ccccc32)C1 (stereo not drawn),AC50,[1],"15.8 µM [falling, single point]"
COc1ccc(-c2nc3ccccc3o2)cc1NC(=O)COc1ccc(C)c(C)c1,AC50,[1],"3.16 µM [rising, partial curve]"
O=C(CSc1nnc(CN2CCOCC2)n1-c1ccc(Cl)cc1)Nc1cc(Cl)ccc1O,AC50,[1],"39.8 µM [falling, single point]"
CCOc1ccc(C(=O)Nc2cccc(C(=O)OCc3cc(=O)n4cc(C)sc4n3)c2)cc1,AC50,[1],"0.126 µM [falling, full curve]"
COc1ccc(S(=O)(=O)N(CC(=O)N2CCc3ccccc3C2)c2ccc(C)cc2)cc1,AC50,[1],"7.94 µM [falling, partial curve]"
COc1ccc(Br)cc1CNC(=O)c1cc(=O)[nH]c2ccc(S(=O)(=O)N3CCCCC3C)cc12 (stereo not drawn),AC50,[1],"31.6 µM [falling, single point]"
CCn1cc(C(=O)NCCc2ccccc2)c(=O)c2cc(S(=O)(=O)N3CCCCCC3)ccc21,AC50,[1],"6.31 µM [falling, partial curve]"
Cc1nn(C(C)C(=O)N2CCN(c3ccc(F)cc3)CC2)c(=O)c2c1sc1ccccc12 (stereo not drawn),AC50,[1],"31.6 µM [falling, single point]"
Nc1c(C(=O)NCCc2ccccc2)nnn1CC(=O)Nc1ccc(Cl)cc1,AC50,[1],"0.02 µM [falling, full curve, poor fit]"
C=Cc1ccc(Cn2c(C(=O)O)c(CNCCc3ccccc3)c3ccc(C)cc32)cc1,AC50,[1],"39.8 µM [falling, single point]"
O=C(CSc1nc2c([nH]c3ccccc32)c(=O)n1-c1ccccc1)c1ccc(Cl)cc1,AC50,[1],"39.8 µM [rising, single point]"
CCCn1c(CCC(=O)Nc2cccc(C)c2C)nc2cccnc21,AC50,[1],"12.6 µM [falling, partial curve]"
CC(C)NS(=O)(=O)c1ccc(OCC(=O)Nc2ccc3c(c2)OCO3)c(Cl)c1,AC50,[1],"15.8 µM [falling, partial curve]"
Cc1ccccc1OCCCCn1c(C2CC(=O)N(c3ccccc3Cl)C2)nc2ccccc21 (stereo not drawn),AC50,[1],"15.8 µM [falling, partial curve]"
CCOC(=O)C1CCCN(c2c(C(=O)c3ccc(C)cc3)cnc3ccc(OCC)cc23)C1 (stereo not drawn),AC50,[1],"31.6 µM [falling, partial curve]"
O=C(Nc1nc(-c2cccs2)cs1)c1ccc(Cl)s1,AC50,measured here: IkB-luc green channel,"25.1 µM [falling, partial curve]"
same,AC50,measured here: control luc red channel,"7.94 µM [falling, full curve]"
Cc1ccc2nc(NC(=O)c3ccc(S(=O)(=O)N4CCCc5ccccc54)cc3)sc2c1,AC50,[1],"7.94 µM [falling, full curve, poor fit]"
O=C(C1CCCCC1)N(Cc1cccnc1)c1nc2c(F)cc(F)cc2s1,AC50,[1],"7.94 µM [falling, partial curve]"
COc1ccc(OC)c(NC(=O)c2c(NCc3ccc(OC)c(OC)c3)sc3c2CCC(C)C3)c1 (stereo not drawn),AC50,[1],"39.8 µM [falling, partial curve]"
Nc1c(C(=O)Nc2cccc(F)c2)sc2nc(-c3cccs3)ccc12,AC50,[1],"7.94 µM [falling, partial curve]"
COc1ccccc1-c1cc(C(=O)Nc2c(C)n(C)n(-c3ccccc3)c2=O)no1,AC50,[1],"0.794 µM [falling, full curve]"
Cn1c(/C=N/c2nc3ccccc3[nH]2)nc2ccccc21,AC50,[1],"15.8 µM [falling, partial curve]"
O=C(CCCSc1nc2ccccc2s1)NC1=NCCS1,AC50,[1],"5.01 µM [falling, partial curve]"
Cc1cc(C)nc(NS(=O)(=O)c2ccc(NC(=O)c3cc(=O)c4ccc(C)c(C)c4o3)cc2)n1,AC50,[1],"39.8 µM [falling, single point]"
Cc1ccccc1-c1nc2scc(CCNC(=O)C(=O)Nc3ccc(F)cc3F)n2n1,AC50,[1],"15.8 µM [falling, partial curve]"
Cc1oc2ccc(O)c(CN3CCCCC3C)c2c1C(=O)Nc1ccccc1 (stereo not drawn),AC50,[1],"39.8 µM [falling, single point]"
O=C(CC(c1cccs1)N1Cc2ccccc2C1=O)Nc1ccc(F)cc1F (stereo not drawn),AC50,[1],"20 µM [falling, single point]"
Cc1cccc(CC(=O)NC2CC(=O)N(c3ccccc3)C2)c1 (stereo not drawn),AC50,[1],"3.16 µM [falling, single point]"
Cc1ccc(O)c(NC(=O)c2cc(-c3ccc(F)cc3)on2)c1,AC50,[1],"0.01 µM [falling, full curve]"
Cc1ccccc1CSCCNC(=O)C1CCN(S(=O)(=O)Cc2ccccc2)CC1,AC50,[1],"15.8 µM [falling, partial curve]"
COc1ccc(NC(=O)CCc2nc3cccnc3n2-c2ccccc2)cc1Cl,AC50,[1],"39.8 µM [falling, single point]"
Cc1cc(-c2ccc(S(=O)(=O)Nc3cc(Cl)ccc3C)s2)on1,AC50,[1],"2.51 µM [rising, full curve]"
COc1ccc(CCNC(=O)c2cc3c(-c4ccc(OC)c(OC)c4)nn(C)c3s2)cc1OC,AC50,[1],"10 µM [falling, partial curve]"

# As a working copy, part of the list above.
structure (smiles),measurement,setting,value
CCCCOc1ccc(C2=NC(c3cccs3)=Nc3ccc(OC)cc3N2)cc1,AC50,[1],"15.8 µM [falling, single point]"
COc1ccc(OC)c(CNC(=O)c2c(C)oc3ncn(CC(C)C)c(=O)c23)c1,AC50,[1],"12.6 µM [falling, partial curve, poor fit]"
Cc1nn(C)c(C)c1S(=O)(=O)N(CC(=O)NCCc1ccc(Cl)cc1)c1ccc(C(C)C)cc1,AC50,[1],"10 µM [falling, partial curve]"
COc1cccc2sc(N(Cc3cccnc3)C(=O)c3ccco3)nc12,AC50,[1],"20 µM [falling, partial curve]"
COc1ccc2cccc(N3CCN(CCNC(=O)c4ccc(F)cc4)CC3)c2c1,AC50,[1],"15.8 µM [falling, partial curve]"
CC1Cc2ccccc2N1C(=O)C1CCCN(S(=O)(=O)c2cccc3nsnc23)C1 (stereo not drawn),AC50,[1],"39.8 µM [falling, single point]"
Cc1ccccc1C(=O)Nc1ccc(S(=O)(=O)N2CCC(c3nc4ccccc4s3)CC2)cc1,AC50,[1],"20 µM [falling, single point]"
CCC(Oc1ccccc1)C(=O)Nc1cccc(OCc2cc(=O)n3cccc(C)c3n2)c1 (stereo not drawn),AC50,[1],"7.94 µM [falling, full curve]"
CCOC(=O)c1c(C)oc(NC(=O)COc2ccc(Cl)cc2C)c1C#N,AC50,[1],"25.1 µM [falling, partial curve]"
CCOC(=O)c1ccc2c(c1)nc(SC/C(O)=C(\C#N)c1nc3ccccc3[nH]1)n2CC,AC50,[1],"10 µM [falling, partial curve]"
COc1cccc(NC(=O)CSc2nc(C)c(Cc3ccccc3)c(=O)[nH]2)c1,AC50,[1],"20 µM [falling, partial curve]"
Cc1nc2c(c(=O)n1Cc1ccco1)c1nc3ccccc3nc1n2Cc1ccccc1,AC50,[1],"12.6 µM [falling, partial curve]"
Cc1cccc(-c2nc3c4c(-c5ccccc5)c(-c5ccccc5)oc4ncn3n2)c1,AC50,[1],"25.1 µM [falling, partial curve, poor fit]"
